In all, about 53,000 sequences went through this assay and about 3,700 (7%) were called active.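 The calls were made as follows: active = gene knockdowns whose robust z-score for IL-1 alpha signal is at least 2 or at most -2, so actives lie on both sides; inactive = the rest.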 The list shows a part of the results.
assay: Components of the Cytosolic LPS Sensing Pathway: Gene Identification via Genome-wide siRNA Screen; details: RAW264.7 macrophages, IL-1a HTRF, actives lie on both sides, screened at 100 nM (by protocol), cells primed 5 h with Pam3CSK4 first;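 also: robust z of the log signal after scaling to non-targeting control siRNA wells of the plate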
Method in brief: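 Cells (RAW264.7, 1×10^4 per well) were transfected with siRNA at 100 nM and cultured 48h at 37 degrees C. Pam3CSK4 was added for 5 hours; LipidA transfection followed for 24 hour. IL-1a was then measured by HTRF.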

Sequence | z-score
GCUCUUACCACUGAUAGGATT against Ppcs | inactive: 0.049
GCACUGUUCGUUUUUGUUUTT against Astn1 | inactive: 0.275
GAGAUCAACUUGGUGACGGTT against Cacng7 | inactive: -0.446
CGACCAGAAGUGGUAUGUCTT against Adra2a | inactive: -1.03
GGAGCUGAAAAUUGUUACCTT against Tpm2 | inactive: 0.134
GGAUGGAAUUACAAGGGUUTT against Kif1b | inactive: 0.399
GGUGUUAUUUUGAAGAAGATT against Arhgef10 | inactive: -0.0372
GGUCCUCUGGUUCAACAUUTT against Olfr638 | inactive: -0.405
GGAAAAGGUCAUUAUCAUUTT against Hsf3 | active: -2.11
GGUCACUGAACUGUUGCUGTT against Trpc7 | inactive: 1.58
GGAUAAGCAGUUCUCAAGCTT against Mef2a | inactive: -0.545
GGAAGCAUCCAGUGCUAUUTT against Kremen2 | inactive: 0.203
GGAUAUGUUGGAGAAGGACTT against Mri1 | inactive: -1.86
GGCAACAGCACCAGAAGGATT against Ccl19 | inactive: -0.843
GGCAUAGUCGAGGAGAGUGTT against Ahcyl2 | inactive: 1.04
GGUUAUCCGUGGUAACCAUTT against Taok3 | inactive: 0.78
GGUAUUCUUCCUCCAUGGGTT against Olfr638 | active: -3.22
GGAGGAUCUUGAGUUGGAGTT against Nupr1l | active: 2.32
GGAGAAAAGGUACGUUGUUTT against Rem1 | inactive: -1.06
GGCUCCUAUAUACUGAUCATT against Olfr1402 | active: -2.65
GGAUGUGUGCAUCACGGGUTT against 1700018B08Rik | inactive: -0.418
GGUGUUUGGCUCACAAACCTT against Mmp23 | inactive: -0.924

Sequence | z-score
GGAAAAAAUGGAGUUAUGUTT against Emc1 | inactive: -0.792
GGUGAAAUCUCUCUGGCCUTT against Panx3 | inactive: 0.166
GGCAUGGAAUCUGUUGUACTT against Olfr603 | active: 2.45
GGUAUACGAACAUGUUUAUTT against Lin7c | inactive: 0.0264
GCAUGACAUGCAAAACUACTT against Abhd3 | inactive: -0.765
GGACAGCUUUGAUUUCAUUTT against Nkain4 | inactive: 0.221
GCCAGUUAGGGAACUACGATT against Ttc28 | inactive: -0.0959
GCAGUUAUCAGUCGUCAAUTT against Zfp334 | inactive: -0.488
GGCAACACCAUACAGUAUATT against Adh7 | inactive: 1.61
GGAAUCACUGGUAUUAUCGTT against Surf1 | inactive: 0.805
CCUGAUCAGAGUCUUAGUATT against Espl1 | inactive: -1.25
GGAGAAUAUAGCAGGAGGUTT against Odf3l1 | inactive: 0.645
CCUUUUUGUUGUCUCACUATT against Olfr116 | inactive: -1.14
GGGAAAGAAAACAAAGGAATT against Arhgap31 | inactive: -0.196
GCCUAACAUUGAUAUGUUGTT against Ephx3 | inactive: -0.745
GGAAGAAGCCACCUUUUUUTT against Cd2 | inactive: -0.391
GCUAAGGACUCAGCAAAACTT against Coq5 | inactive: 0.733
GCUUUAAAUAGAGACUAUCTT against Sox30 | inactive: 1.15
GGUCAUCCGAUGCUUUGUATT against 4930515G01Rik | inactive: -0.513
GGCCUAAAGUAAUUUUGGGTT against Cep162 | inactive: 0.441
GGUCAAAAACUUGACUCGUTT against Gnl3l | inactive: 0.655
GCUGUCACUUUGAAUCCCUTT against Nrg1 | inactive: -0.988

Sequence | z-score
GGCUUACUACGACACAGACTT against Clk2 | inactive: -0.192
GGACUUAAAAGAGGAGAUCTT against 4933434E20Rik | active: 3.73
CCGUCAUGAUCUUAAAAGATT against Slc30a8 | inactive: -0.293
UCUUCGGUCAACUCUAUGGTT against Olfr969 | inactive: 0.183
GGUAUAGCUUGGGCUAUAGTT against Olfr92 | inactive: 0.494
CCAUCAGAUUAUCUAUCUATT against Mapk11 | inactive: 0.861
GGCAUUAAUAUGUCUGACUTT against Tada1 | inactive: -0.0627
GCAAACGAAAAACAGUGACTT against Nsf | inactive: 0.86
GCAUUAGGUAUGGUCAAGATT against Cdt1 | inactive: 0.0757
CCUCAGAGUCCCUAGAAAATT against Fam170a | inactive: -0.672
CCAAAACCUCUACCGUUACTT against Cyp3a25 | inactive: 0.246
GGAAGACACAUCACCAAAATT against Chaf1a | inactive: 0.157
CGGAAUUUGAACGUGUCUUTT against Cdk9 | inactive: -1.53
GGGCUACCAUAGUGACAAATT against Gja5 | inactive: -1.79
GUCCCUGAAAGAUGAAGAUTT against Tecr | inactive: 0.157
GCUAAGUGACCUCUUUAACTT against Desi1 | inactive: 0.419
GGUAUGACCUCAUUCGGCATT against Fan1 | inactive: -1.13
GGAGCUGAUCCAGAACAGATT against Ncor2 | inactive: 0.843
GCCUAGGUUUGAUGAACUATT against Nlgn3 | inactive: 1.3
GGAGACCUUCAAGUACUUUTT against Dcakd | inactive: -0.047
GGAACAAAGACAUUGCUUUTT against Sf3a3 | active: -2.77
GGAGGUCGCUUCCUAUUACTT against Tat | inactive: -1.65

Part of the list above, as tab-separated lines.
Sequence	z-score
GCAUUAGGUAUGGUCAAGATT against Cdt1	inactive: 0.0757
GGAAGACACAUCACCAAAATT against Chaf1a	inactive: 0.157
GCCUAGGUUUGAUGAACUATT against Nlgn3	inactive: 1.3

Additional entries

Sequence | z-score
UAUACCUUAGUGCUGAGGGTT against Olfr736 | inactive: -1.02
GCUGCAACAUGACAUGUCGTT against AU022252 | inactive: -1.21
GCACUUAUGGACUUCCAGCTT against Cd2ap | inactive: 0.405
CGAAGAGUACUUUUUUAGUTT against Ccdc38 | inactive: -0.672
GGCACUGGAACUAAUAUAUTT against Ormdl2 | inactive: 0.167
GGAAUCUCCACCAUACAGGTT against Vmn1r26 | inactive: -0.263
GGAACACAAGCACCUGCAUTT against Corin | inactive: -0.564
GGAAGAUCGGAGACAAAGUTT against Pmaip1 | inactive: 0.98
CCACAUCGAGGACUGGUAGTT against Lage3 | inactive: -0.108
GGACAAACAUUGGAUUGAUTT against Snrnp40 | inactive: 1.17
GGAACCUAAACGAACAAGGTT against Col6a2 | active: 2.18
GGCCAAAGCUGAUAUGACATT against Ankef1 | active: 2.23
GGUUCUUCAGGCCACUGAUTT against Dnaaf2 | inactive: 0.982
CCUAAAAGGAUCUUUCAUGTT against Cpa6 | inactive: 0.117
GGCUAGAUUUCUGAUUCCCTT against Pigz | inactive: 0.906
GGAGUACAUCUUAGACAAATT against Tram2 | inactive: 0.942
GGAGAAGCCAGGAGUUUACTT against Klk6 | inactive: 1.71
GGGUCUUCACAUAUCUCAUTT against Tep1 | inactive: 0.0251
CCCUACAAACCAUCUGGUUTT against Aga | inactive: -0.114
CCGUGGGUUUUUUGAAUCUTT against Slc6a1 | active: 2.63
GGACAACACCUAUUUAGUGTT against Cdk5rap3 | inactive: -1.51
GCGAAUGAUAGAUCCUGUCTT against Stx17 | inactive: -0.227

Copied from the list:
GGCUAGAUUUCUGAUUCCCTT against Pigz | z-score: inactive: 0.906
CCGUGGGUUUUUUGAAUCUTT against Slc6a1 | z-score: active: 2.63
GGAAGAUCGGAGACAAAGUTT against Pmaip1 | z-score: inactive: 0.98
GGAGUACAUCUUAGACAAATT against Tram2 | z-score: inactive: 0.942
GGGUCUUCACAUAUCUCAUTT against Tep1 | z-score: inactive: 0.0251
CCUAAAAGGAUCUUUCAUGTT against Cpa6 | z-score: inactive: 0.117

The list continues:

Sequence | z-score
GGAACACCAUCAAUAAACUTT against Tjap1 | active: -2.09
GGAUACAUACUGGACAAAATT against Zfp934 | inactive: -0.865
GGAAGAUGGCACUAUUCUCTT against Pomk | inactive: 0.385
GGUUAGUUGGCAAGUGUAATT against Cd1d1 | inactive: 1.25
GCUAGAAAUGAGGUGCGCCTT against Mapkapk5 | inactive: 0.537
GCGCAUGAAUUCGUGCAACTT against Hoxb6 | inactive: 0.0509
CAGCAGUGCACAGAAAUGGTT against Olfr12 | inactive: 1.07
GGAUUAUGACUCCUAGCGCTT against Drap1 | inactive: -0.751
GGAUUCCAUCUUUGUAUGATT against Cbr4 | inactive: 0.689
CCAUUGAUAUUAAAUCGCUTT against Pik3cg | inactive: -0.244
GGUUAUGCCUUCAGUGAAGTT against Prep | inactive: -0.14
GGUGCCGACAGUAUUUACATT against Zfyve26 | inactive: 1.25
GGCUAUUAACAUGCAUAGATT against Ear6 | inactive: 1.78
GCUAUGCUUAUUGUAUUGATT against Fut11 | inactive: -1.75
GGAGUUAUUCUAGGAAUAUTT against Slc22a26 | inactive: -0.249
GGUUUCAUGAAAGAGGAGCTT against Cbs | inactive: -0.926
GCUCGAACAUCUCUUGGUCTT against Capn9 | inactive: 0.186
CCACACAUUUAAAAUGGCGTT against Ctsh | inactive: -1.37
GGCAAACUUUAACUCCACATT against Fastk | inactive: -0.976
